Patent US20060062732A1, “Medicine for detecting lipid components in vivo and vascular endoscope” (Yasumi UCHIDA, priority 2004, published 2006)

Key:
[1] = test system: OxLDL (oxidized low density lipoprotein); experiment: Dye-evoked fluorescence of oxLDL, fluorescent microscopy
[2] = Dye-evoked fluorescence of cholesteryl linolate, fluorescent microscopy; design: key: B: blue.; G: green.; O: orange.; W: white.; Y: yellow
[3] = Dye-evoked fluorescence of calcium phosphate, fluorescent microscopy; design: key: B: blue.; G: green.; O: orange.; W: white.; Y: yellow
[4] = test system: Atherosclerotic plaques of human coronary artery; experiment: Scanning microscopic observation of dye-evoked fluorescence in removed human coronary plaques; settings: plaque segments dipped into 10^-5 M dye solution for 5 min
[5] = test system: Atherosclerotic plaques of human coronary artery; experiment: Dye-evoked fluorescence of human coronary plaques by color fluorescent image angioscopy system; settings: artery perfused with dye solution for 5 min
[6] = test system: IDL (intermediate density lipoprotein); experiment: Dye-evoked fluorescence of IDL, fluorescent microscopy; design: key: B: blue.; G: green.; O: orange.; W: white.; Y: yellow
[7] = Dye-evoked fluorescence of PC, fluorescent microscopy; design: key: B: blue.; G: green.; O: orange.; W: white.; Y: yellow
[8] = Dye-evoked fluorescence of lyso PC, fluorescent microscopy; design: key: B: blue.; G: green.; O: orange.; W: white.; Y: yellow; settings: exciting 470 nm, emitting 515 nm
[9] = test system: OxLDL (oxidized low density lipoprotein); experiment: Dye-evoked fluorescence of oxLDL, fluorescent microscopy; design: key: B: blue.; Br: brown.; G: green.; Go: gold.; O: orange.; P: purple.; R: red.; SB: sky blue.; V: violet.; W: white.; Y: yellow
[10] = test system: LDL (low density lipoprotein); experiment: Dye-evoked fluorescence of LDL, fluorescent microscopy; design: key: B: blue.; Br: brown.; G: green.; Go: gold.; O: orange.; P: purple.; R: red.; SB: sky blue.; V: violet.; W: white.; Y: yellow
[11] = test system: VLDL (very low density lipoprotein); experiment: Dye-evoked fluorescence of VLDL, fluorescent microscopy; design: key: B: blue.; Br: brown.; G: green.; Go: gold.; O: orange.; P: purple.; R: red.; SB: sky blue.; V: violet.; W: white.; Y: yellow
[12] = test system: HDL (high density lipoprotein); experiment: Dye-evoked fluorescence of HDL, fluorescent microscopy; design: key: B: blue.; Br: brown.; G: green.; Go: gold.; O: orange.; P: purple.; R: red.; SB: sky blue.; V: violet.; W: white.; Y: yellow
[13] = Dye-evoked fluorescence of PC, fluorescent microscopy; design: key: B: blue.; Br: brown.; G: green.; Go: gold.; O: orange.; P: purple.; R: red.; SB: sky blue.; V: violet.; W: white.; Y: yellow
[14] = Dye-evoked fluorescence of lyso PC, fluorescent microscopy; design: key: B: blue.; Br: brown.; G: green.; Go: gold.; O: orange.; P: purple.; R: red.; SB: sky blue.; V: violet.; W: white.; Y: yellow
[15] = as above
[16] = test system: OxLDL (oxidized low density lipoprotein); experiment: Dye-evoked fluorescence of oxLDL, fluorescent microscopy; design: key: B: blue.; G: green.; O: orange.; W: white.; Y: yellow; settings: exciting 470 nm, emitting 515 nm
[17] = test system: LDL (low density lipoprotein); experiment: Dye-evoked fluorescence of LDL, fluorescent microscopy; design: key: B: blue.; G: green.; O: orange.; W: white.; Y: yellow
[18] = test system: VLDL (very low density lipoprotein); experiment: Dye-evoked fluorescence of VLDL, fluorescent microscopy; design: key: B: blue.; G: green.; O: orange.; W: white.; Y: yellow
[19] = test system: HDL (high density lipoprotein); experiment: Dye-evoked fluorescence of HDL, fluorescent microscopy; design: key: B: blue.; G: green.; O: orange.; W: white.; Y: yellow
[20] = Dye-evoked fluorescence of TG, fluorescent microscopy; design: key: B: blue.; G: green.; O: orange.; W: white.; Y: yellow
[21] = test system: IDL (intermediate density lipoprotein); experiment: Dye-evoked fluorescence of IDL, fluorescent microscopy; design: key: B: blue.; Br: brown.; G: green.; Go: gold.; O: orange.; P: purple.; R: red.; SB: sky blue.; V: violet.; W: white.; Y: yellow
[22] = Dye-evoked fluorescence of TG, fluorescent microscopy; design: key: B: blue.; Br: brown.; G: green.; Go: gold.; O: orange.; P: purple.; R: red.; SB: sky blue.; V: violet.; W: white.; Y: yellow; settings: exciting 360 nm, emitting 420 nm
[23] = exciting at 360 nm and emitting at 420 nm
[24] = exciting at 470 nm and emitting at 515 nm
[25] = exciting 360 nm, emitting 420 nm
[26] = exciting 470 nm, emitting 515 nm

What does the source list for `Cc1cc(-c2ccc(/N=N/c3ccc4c(S(=O)(=O)O)cc(S(=O)(=O)O)c(N)c4c3O)c(C)c2)ccc1/N=N/c1ccc2c(S(=O)(=O)O)cc(S(=O)(=O)O)c(N)c2c1O` [Evans blue]?
Dye-evoked fluorescence colour [1, 23]: violet fluorescence; Dye-evoked fluorescence colour [1, 24]: brown fluorescence; Dye-evoked fluorescence colour [2, 25]: B; Dye-evoked fluorescence colour [2, 26]: G; Dye-evoked fluorescence colour [3, 25]: B; Dye-evoked fluorescence colour [3, 26]: Y; Dye-evoked fluorescence of the plaque [4, 23]: violet fluorescence; Dye-evoked fluorescence of the plaque [4, 24]: brown fluorescence; Dye-evoked fluorescent image of the plaque [5, 23]: violet fluorescence; Dye-evoked fluorescent image of the plaque [5, 24]: brown fluorescence; Dye-evoked fluorescence colour [6, 26]: O; Dye-evoked fluorescence colour [7, 26]: O; Dye-evoked fluorescence colour [8]: O; Dye-evoked fluorescence colour [9, 25]: V; Dye-evoked fluorescence colour [9, 26]: Br; Dye-evoked fluorescence colour [10, 26]: R; Dye-evoked fluorescence colour [11, 26]: R; Dye-evoked fluorescence colour [12, 25]: R; Dye-evoked fluorescence colour [12, 26]: R; Dye-evoked fluorescence colour [13, 25]: V; Dye-evoked fluorescence colour [14, 25]: V

With `CC[n+]1c(-c2ccccc2)c2cc(N)ccc2c2ccc(N)cc21` [Homidium chloride] as the molecule, how does the “Dye-evoked fluorescence colour” value [15, 23] read?
Its value is “red fluorescence”.

And the “Dye-evoked fluorescence colour” value [15, 24]?
Its value is “red fluorescence”.

What about the Dye-evoked fluorescence colour [2, 25] of the same molecule?
The Dye-evoked fluorescence colour was “W”.

What about the Dye-evoked fluorescence colour [2, 26] of the same molecule?
The Dye-evoked fluorescence colour was “Y”.

And the Dye-evoked fluorescence colour [3, 25]?
Its Dye-evoked fluorescence colour is “W”.

What about the Dye-evoked fluorescence colour [3, 26] of the same molecule?
The Dye-evoked fluorescence colour was “Y”.

What about the “Dye-evoked fluorescence of the plaque” value [4, 23] of the same molecule?
Its value is “red fluorescence”.

And the “Dye-evoked fluorescence of the plaque” value [4, 24]?
The value was “red fluorescence”.

What about the “Dye-evoked fluorescent image of the plaque” value (“Dye-evoked fluorescent image” below) ([5]; filters not stated) of the same molecule?
The value was “red fluorescence”.

What about the Dye-evoked fluorescence colour [16] of the same molecule?
Its Dye-evoked fluorescence colour is “O”.

And the Dye-evoked fluorescence colour [17, 26]?
The Dye-evoked fluorescence colour was “O”.

And the Dye-evoked fluorescence colour [18, 26]?
Its Dye-evoked fluorescence colour is “O”.

What about the Dye-evoked fluorescence colour [6, 26] of the same molecule?
Its Dye-evoked fluorescence colour is “O”.

And the Dye-evoked fluorescence colour [19, 26]?
Its Dye-evoked fluorescence colour is “Y”.

What about the Dye-evoked fluorescence colour [7, 26] of the same molecule?
The Dye-evoked fluorescence colour was “Y”.

And the Dye-evoked fluorescence colour [20, 25]?
The Dye-evoked fluorescence colour was “O”.

And the Dye-evoked fluorescence colour [20, 26]?
Its Dye-evoked fluorescence colour is “O”.

What about the Dye-evoked fluorescence colour [9, 25] of the same molecule?
Its Dye-evoked fluorescence colour is “V”.

And the Dye-evoked fluorescence colour [10, 25]?
The Dye-evoked fluorescence colour was “P”.

What about the Dye-evoked fluorescence colour [11, 25] of the same molecule?
The Dye-evoked fluorescence colour was “P”.

What about the Dye-evoked fluorescence colour [21, 25] of the same molecule?
Its Dye-evoked fluorescence colour is “P”.

What about the Dye-evoked fluorescence colour [12, 25] of the same molecule?
The Dye-evoked fluorescence colour was “P”.

And the Dye-evoked fluorescence colour [13, 25]?
Its Dye-evoked fluorescence colour is “P”.

And the Dye-evoked fluorescence colour [14, 25]?
Its Dye-evoked fluorescence colour is “R”.

And the Dye-evoked fluorescence colour [14, 26]?
Its Dye-evoked fluorescence colour is “R”.

For `CC1=NN(c2cc(Cl)c(S(=O)(=O)[O-])cc2Cl)C(=O)C1N=Nc1ccc(S(=O)(=O)[O-])cc1.[Na+].[Na+]` (stereo not shown) [Lissamine fast yellow], which “Dye-evoked fluorescent image” value ([5]; filters not stated) is on record?
Its value is “brown fluorescence”.

What about the Dye-evoked fluorescence colour [18, 25] of the same molecule?
Its Dye-evoked fluorescence colour is “O”.

What about the Dye-evoked fluorescence colour [18, 26] of the same molecule?
Its Dye-evoked fluorescence colour is “O”.

What about the Dye-evoked fluorescence colour [6, 25] of the same molecule?
Its Dye-evoked fluorescence colour is “Y”.

What about the Dye-evoked fluorescence colour [19, 25] of the same molecule?
The Dye-evoked fluorescence colour was “O”.

What about the Dye-evoked fluorescence colour [19, 26] of the same molecule?
Its Dye-evoked fluorescence colour is “O”.

And the Dye-evoked fluorescence colour [7, 25]?
The Dye-evoked fluorescence colour was “W”.

And the Dye-evoked fluorescence colour [7, 26]?
Its Dye-evoked fluorescence colour is “Y”.

What about the Dye-evoked fluorescence colour [21, 26] of the same molecule?
The Dye-evoked fluorescence colour was “R”.

What about the Dye-evoked fluorescence colour [14, 25] of the same molecule?
Its Dye-evoked fluorescence colour is “Br”.

What about the Dye-evoked fluorescence colour [14, 26] of the same molecule?
The Dye-evoked fluorescence colour was “Br”.

What does the source list for `O=S(=O)([O-])c1cccc(N=Nc2ccc(Nc3ccccc3)cc2)c1.[Na+]` [Metanyl yellow]?
Dye-evoked fluorescent image of the plaque ([5]; filters not stated): brown fluorescence; Dye-evoked fluorescence colour [16]: Y; Dye-evoked fluorescence colour [13, 25]: Br; Dye-evoked fluorescence colour [13, 26]: R; Dye-evoked fluorescence colour [14, 25]: Br; Dye-evoked fluorescence colour [14, 26]: Br

With `CC[N+](CC)=c1ccc2nc3c(cc(N)c4ccccc43)oc-2c1` [Nile blue] as the molecule, how does the “Dye-evoked fluorescence of the plaque” value [4, 24] read?
The value was “golden fluorescence”.

And the “Dye-evoked fluorescent image” value ([5]; filters not stated)?
Its value is “golden fluorescence”.

What about the Dye-evoked fluorescence colour [17, 25] of the same molecule?
The Dye-evoked fluorescence colour was “O”.

What about the Dye-evoked fluorescence colour [17, 26] of the same molecule?
The Dye-evoked fluorescence colour was “O”.

And the Dye-evoked fluorescence colour [18, 26]?
Its Dye-evoked fluorescence colour is “G”.

What about the Dye-evoked fluorescence colour [6, 26] of the same molecule?
The Dye-evoked fluorescence colour was “G”.

What about the Dye-evoked fluorescence colour [19, 26] of the same molecule?
The Dye-evoked fluorescence colour was “G”.

And the Dye-evoked fluorescence colour [7, 26]?
Its Dye-evoked fluorescence colour is “O”.

And the Dye-evoked fluorescence colour [8]?
The Dye-evoked fluorescence colour was “O”.

And the Dye-evoked fluorescence colour [20, 25]?
The Dye-evoked fluorescence colour was “Y”.

What about the Dye-evoked fluorescence colour [20, 26] of the same molecule?
The Dye-evoked fluorescence colour was “Y”.

What about the Dye-evoked fluorescence colour [9, 26] of the same molecule?
The Dye-evoked fluorescence colour was “Go”.

And the Dye-evoked fluorescence colour [13, 25]?
The Dye-evoked fluorescence colour was “R”.

What about the Dye-evoked fluorescence colour [14, 25] of the same molecule?
Its Dye-evoked fluorescence colour is “R”.

Which results are given for `Cc1cc(-c2ccc(/N=N/c3c(S(=O)(=O)[O-])cc4cc(S(=O)(=O)[O-])cc(N)c4c3O)c(C)c2)ccc1/N=N/c1c(S(=O)(=O)[O-])cc2cc(S(=O)(=O)[O-])cc(N)c2c1O.[Na+].[Na+].[Na+].[Na+]` [Tripan blue]?
Dye-evoked fluorescence colour [3, 25]: B; Dye-evoked fluorescence colour [3, 26]: G; Dye-evoked fluorescence of the plaque [4, 23]: red fluorescence; Dye-evoked fluorescence of the plaque [4, 24]: red fluorescence; Dye-evoked fluorescent image of the plaque ([5]; filters not stated): red fluorescence; Dye-evoked fluorescence colour [16]: O; Dye-evoked fluorescence colour [17, 26]: O; Dye-evoked fluorescence colour [6, 26]: G; Dye-evoked fluorescence colour [7, 26]: O; Dye-evoked fluorescence colour [20, 26]: O; Dye-evoked fluorescence colour [9, 25]: V; Dye-evoked fluorescence colour [10, 25]: V; Dye-evoked fluorescence colour [11, 25]: V; Dye-evoked fluorescence colour [11, 26]: R; Dye-evoked fluorescence colour [12, 25]: P; Dye-evoked fluorescence colour [12, 26]: R; Dye-evoked fluorescence colour [13, 25]: P; Dye-evoked fluorescence colour [14, 25]: R; Dye-evoked fluorescence colour [14, 26]: R; Dye-evoked fluorescence colour [22]: P
